Experimental data published in publication PMC5300761.

By UniProt entry, the sequences of proteins in these tests, tags left out.
UniProt O88477, whole entry: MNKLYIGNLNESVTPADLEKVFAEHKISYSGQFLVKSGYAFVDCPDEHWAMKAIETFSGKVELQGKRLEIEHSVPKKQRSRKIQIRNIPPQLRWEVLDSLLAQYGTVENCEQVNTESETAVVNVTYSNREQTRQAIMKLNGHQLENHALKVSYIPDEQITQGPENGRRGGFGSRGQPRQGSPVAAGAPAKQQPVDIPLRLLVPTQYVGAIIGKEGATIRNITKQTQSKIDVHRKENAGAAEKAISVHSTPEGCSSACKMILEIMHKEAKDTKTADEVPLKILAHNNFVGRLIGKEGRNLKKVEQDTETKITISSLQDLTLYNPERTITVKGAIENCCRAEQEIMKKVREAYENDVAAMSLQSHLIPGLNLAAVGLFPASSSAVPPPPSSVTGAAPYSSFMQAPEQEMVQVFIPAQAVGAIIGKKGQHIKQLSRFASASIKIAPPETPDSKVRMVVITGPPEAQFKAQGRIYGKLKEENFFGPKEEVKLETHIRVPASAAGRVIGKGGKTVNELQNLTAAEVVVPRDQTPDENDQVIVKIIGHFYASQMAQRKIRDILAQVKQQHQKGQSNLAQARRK

Biological target: CRD-BP WT (mouse) (UniProt O88477)
Assay: EMSA
Details: 40 nM RNA; competitor preincubation 35 C); recombinant protein; label: 32P-UTP internal; probe letters rebuilt from the primers and the genome; part of a longer molecule

Q: For “AUUGUACAAAUAAGUGUGCAGUAUCUGUGAACUGAAUUCACCACAGACUUUAGCUUUCUGAGCAAGAGGAUUGAGAUUUUUAUGCCUGUGACUUCCUUGGAAAUCAAAUGUAAAGUUUAAUUGAAAGAAUGUAAAGCAACCA [MITF RNA 1550-1740 (del1621-1669)]”, which Kd is on record?
A: 970 nM

For at least one entry, the source does not settle the construct or the ends of the probe.
